Laboratory results published in US20240351986A1, “UREA COMPOUND CONTAINING 2-HETEROAROMATIC RING SUBSTITUTION, PREPARATION METHOD THEREFOR AND USE THEREOF” (SHANGHAI INSTITUTE OF MATERIA MEDICA, CHINESE ACADEMY OF …, priority 2021, published 2024).
At least one read-out could not be matched to a standard name with certainty.

Assay: PK parameters in mice after iv and po administration (LC-MS/MS of plasma)
Type: in vivo
Protocol: The relevant pharmacokinetic parameters were calculated to examine the oral bioavailability and pharmacokinetic properties of the compound in mice.

SMILES	plasma exposure and oral bioavailability compared with AZD4573
COCCN[C@H]1CC[C@H](NC(=O)Nc2cc(-c3cnn4c3CC(C)(C)C4)c(Cl)cn2)CC1 [Example 46, 1-(5-chloro-4-(5,5-dimethyl-5,6-dihydro-4H-pyrrolo[1,2-b]pyrazol-3-yl)pyridin-2-yl)-3-((1r,4r)-4-((2-methoxy)amino)cyclohexyl)urea]	better than those of the positive compound AZD4573
CC(=O)N[C@H]1CC[C@H](NC(=O)Nc2cc(-c3cnn4c3CC(C)(C)C4)c(Cl)cn2)CC1 [Example 47, N-((1r,4r)-4-(3-(5-chloro-4-(5,5-dimethyl-5,6-dihydro-4H-pyrrolo[1,2-b]pyrazol-3-yl)pyridin-2-yl)ureido)cyclohexyl)acetamide]	better than those of the positive compound AZD4573
